# Library screen at single concentrations

Sequences of proteins named here, by UniProt entry; tags and fusion partners are left off.
UniProt I6X8D2, whole entry: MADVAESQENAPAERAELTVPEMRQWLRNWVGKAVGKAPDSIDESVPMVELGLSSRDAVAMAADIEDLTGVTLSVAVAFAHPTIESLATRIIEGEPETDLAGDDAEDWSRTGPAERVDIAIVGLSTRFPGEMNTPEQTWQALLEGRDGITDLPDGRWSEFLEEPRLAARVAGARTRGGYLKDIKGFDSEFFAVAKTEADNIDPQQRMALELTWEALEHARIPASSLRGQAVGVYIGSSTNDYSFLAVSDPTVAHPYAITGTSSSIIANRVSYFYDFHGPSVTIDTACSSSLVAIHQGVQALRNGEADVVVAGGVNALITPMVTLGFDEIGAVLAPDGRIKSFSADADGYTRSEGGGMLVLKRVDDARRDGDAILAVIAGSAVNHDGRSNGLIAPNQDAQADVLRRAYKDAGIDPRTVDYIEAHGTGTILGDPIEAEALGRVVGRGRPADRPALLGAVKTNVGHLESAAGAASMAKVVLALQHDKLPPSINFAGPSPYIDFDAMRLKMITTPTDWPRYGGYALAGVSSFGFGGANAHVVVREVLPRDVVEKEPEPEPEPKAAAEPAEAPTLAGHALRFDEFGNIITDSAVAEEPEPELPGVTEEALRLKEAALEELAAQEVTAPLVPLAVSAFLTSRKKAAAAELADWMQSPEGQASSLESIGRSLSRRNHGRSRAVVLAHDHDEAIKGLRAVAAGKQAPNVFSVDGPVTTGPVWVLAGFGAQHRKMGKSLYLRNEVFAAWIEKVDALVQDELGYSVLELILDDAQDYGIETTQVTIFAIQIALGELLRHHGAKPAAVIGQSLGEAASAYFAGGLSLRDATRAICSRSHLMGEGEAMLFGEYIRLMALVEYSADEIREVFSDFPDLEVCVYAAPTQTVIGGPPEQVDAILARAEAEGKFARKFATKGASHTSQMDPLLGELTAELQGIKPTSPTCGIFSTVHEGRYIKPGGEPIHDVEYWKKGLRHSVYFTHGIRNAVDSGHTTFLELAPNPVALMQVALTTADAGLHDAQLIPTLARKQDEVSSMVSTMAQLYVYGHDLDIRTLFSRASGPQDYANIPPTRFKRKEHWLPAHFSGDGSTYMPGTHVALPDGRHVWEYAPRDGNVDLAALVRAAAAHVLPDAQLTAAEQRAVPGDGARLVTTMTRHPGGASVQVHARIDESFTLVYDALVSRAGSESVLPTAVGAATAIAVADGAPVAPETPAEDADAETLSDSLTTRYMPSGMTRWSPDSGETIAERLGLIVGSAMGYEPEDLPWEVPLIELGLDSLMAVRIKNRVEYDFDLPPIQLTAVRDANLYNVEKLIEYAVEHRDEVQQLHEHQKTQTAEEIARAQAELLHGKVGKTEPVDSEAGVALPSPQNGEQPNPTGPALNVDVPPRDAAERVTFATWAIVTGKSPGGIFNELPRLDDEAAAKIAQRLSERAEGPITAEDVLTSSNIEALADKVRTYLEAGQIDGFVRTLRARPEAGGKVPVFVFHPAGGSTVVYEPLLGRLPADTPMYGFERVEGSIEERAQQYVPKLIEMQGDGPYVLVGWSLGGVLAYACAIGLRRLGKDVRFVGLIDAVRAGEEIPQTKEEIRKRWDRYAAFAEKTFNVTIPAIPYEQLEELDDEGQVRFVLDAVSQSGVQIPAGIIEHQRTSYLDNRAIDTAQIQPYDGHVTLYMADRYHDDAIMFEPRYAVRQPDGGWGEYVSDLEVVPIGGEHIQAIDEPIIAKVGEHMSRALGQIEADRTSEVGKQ

Measurements from “University of Dundee, Small-Polar-MMV Screening Library” (2021), ChEMBL document CHEMBL3988442.

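Enzyme assay of the thioesterase domain of polyketide synthase 13; the read-out is not stated. Target: Polyketide synthase Pks13, Mycobacterium tuberculosis (UniProt I6X8D2). Tested at 30 µM. Higher reads as stronger inhibition (inferred from which compounds were picked for retests). Of about 67,000 compounds tested this way, about 300 (0.46%) reached 50% or more in at least one test.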

The filed quantity is “Percent Effect” (%). How 0% and 100% were set is not recorded. Most values in the screen are low, and negative values occur. This is an unselected part of the compounds tested.

compound,effect
Cc1nc(N2CCN(C)CC2)ncc1C(=O)N1CC(C)(C)C(C)(O)C1 (centres unmarked),-17.24%
CC1=CCN(S(=O)(=O)c2cccc(C(=O)N3CCCN(C)CC3)c2)CC1,-13.74%
Cc1ccc(C(=O)O)cc1CNC(=O)CN1CC(C)(C)[C@@](C)(O)C1,-29.17%
Cc1cc(C(=O)N2CCCC2Cn2nc(C)cc2C)on1 (centres unmarked),-3.309%
Cc1noc(C)c1C(=O)N1CCCC(c2cc(C(F)(F)F)[nH]n2)C1 (centres unmarked),-3.742%
Cc1cc(C(=O)NCC(Cc2cccc(F)c2)N2CCCCC2=O)no1 (centres unmarked),-19.6%
COc1ccc2cc(C(=O)N3CCCC(n4ccnc4C)C3)[nH]c2c1 (centres unmarked),-10.71%
Cc1cnn(CC2CN(Cc3cccc(OCC(N)=O)c3)CCO2)c1 (centres unmarked),-5.103%
CCn1nc(C)c(CCN2CC3(CCOC3)CCC2=O)c1C (centres unmarked),-28.56%
c1cnc(N2CCOCC3(CN(Cc4cc[nH]n4)CCO3)C2)nc1 (centres unmarked),0.3837%
c1ccc(COC[C@H]2CC[C@H]3[C@H](CCN3Cc3ccco3)O2)nc1,-2.276%
Cc1cc(C)n(CCCN(CCN2CCOCC2)Cc2ccco2)n1,-20.92%
Cc1ccc(CN2CCN(CC(=O)Nc3ccc4nsnc4c3)CC2)o1,7.485%
COc1ccc(Cc2ncc3c(n2)CN(C(=O)C(C)(C)C)C3)cc1,2.116%
N#Cc1ccc(N2CCN(c3cnccn3)CC2)c(C(F)(F)F)c1,-5.806%
O=C1[C@H]2CN(Cc3cccs3)C[C@H]2CN1c1ccsc1,-0.5205%
Cc1nnc(NC(=O)NC(C)C(=O)NC2CCCC2)s1 (centres unmarked),13.5%
CCC[C@H]1CN(Cc2ccccc2C#N)C[C@@H]1NS(C)(=O)=O,4.517%
COc1ccc(CN2C[C@@H]3[C@H](CC(=O)N4CCCC4)[C@@H]3C2)cc1,-12.54%
CS(=O)(=O)NCCC1CCCN(Cc2ccccc2F)C1 (centres unmarked),-7.68%
O=C(CCOc1ccccc1Cl)N1CCN(c2cnccn2)CC1,7.445%
CC(C)N(CCO)C(=O)C1CCC(=O)N(CCc2cccc(F)c2)C1 (centres unmarked),-8.807%
COCCCN1CC2(CCCN(c3ncc4nc[nH]c4n3)C2)CCC1=O (centres unmarked),-0.09679%
CNC(=O)CN1C(=O)CCC12CCCN(Cc1ccccn1)C2 (centres unmarked),-18.26%
Cc1[nH]nc(CCC(=O)N2CCCC(OCc3cccnc3)C2)c1C (centres unmarked),-5.422%
Cn1cncc1CN1CCC(O)(Cn2nc(-c3cccs3)oc2=O)CC1,-9.906%
Cc1ccc(-c2nc(CNS(=O)(=O)N(C)C)[nH]c2-c2ccccn2)cc1,-33.48%
Cc1noc([C@H]2C[C@H]3OCC[C@H]3N(S(=O)(=O)C3CC3)C2)n1,-28.66%
CC(C)c1nc2n(n1)CC(NCCc1cccs1)CC2 (centres unmarked),-21.12%
N#Cc1ccc(N2CCC3(CCCN(c4ccccn4)C3)C2)nc1 (centres unmarked),11.02%
O=C1N(Cc2cccnc2)CCC12CCCN(c1ncccn1)C2 (centres unmarked),-37.6%
O=C1N(CCc2ccccc2)CCCC12CCN(C(CO)CO)C2 (centres unmarked),9.033%
c1cc(-c2cnc(NC3CC3)nc2[C@@H]2CCCO2)ccn1,-4.094%
COCCN(C)C[C@@H]1CCC[C@@H]2CN(c3ncccn3)C[C@@H]21,-50.59%
CC(C)N(C(=O)N1CCn2cncc2C1)C(C)C,2.18%
NC(=O)C1CCN(C(=O)C2SCCc3sccc32)CC1 (centres unmarked),-5.667%
Cc1nc(CCNC(=O)N2CCC(Cc3cnn(C)c3)C2)cs1 (centres unmarked),-23.29%
CC(C)Cc1cc(C(=O)NC(C)(C)c2nnc(N)s2)n(C)n1,-21.21%
CCOCc1cnc2n1CCN(C(=O)Cc1ccco1)C2C (centres unmarked),-32.52%
CC(NC(=O)NCc1cccc(CN2CCCC2)c1)c1nccs1 (centres unmarked),-10.38%
Cc1cc(C)c(CNC(=O)C(C)Oc2ccccc2C#N)c(=O)[nH]1 (centres unmarked),11.05%
CCCN(Cc1cnn(C)c1)S(=O)(=O)c1cccc(F)c1C#N,7.343%
NCCO[C@H]1C[C@@H](O)C12CCN(C(=O)COc1cccc(Cl)c1)CC2,-1.644%
CC(C)=CCN1C[C@@H](C(=O)O)C[C@H](C(=O)Nc2ccc(C)nc2)C1,-19.66%
CC(=O)N(C)CC(=O)Nc1cccc(N2CCN(CC3CC3)CC2)c1,-7.501%
Cc1cc(F)cc(CN2CCCn3nc(CNS(C)(=O)=O)cc3C2)c1,-10.17%
Cc1ccc(C(=O)NC2CCCN(C)C2)c(=O)[nH]1 (centres unmarked),-9.404%
c1ccc2nc(N3CCCC3)c(NCc3nnc4n3CCC4)nc2c1,-11.97%
COc1ccccc1C(=O)Nc1c(F)c(C(=O)N2CCCC2)nn1C,-11.29%
C1CCN(Cc2nnn3c2CN(CC2CC2)CCC3)C1,14.94%
O=C(NCC1(O)CCOCC1)c1ccc(F)cc1,-4.336%
CN(CCCc1cc(-c2ccccc2)n[nH]1)C(=O)CCCn1cncn1,-3.895%
Cc1ccc(OCCCNC(=O)Cc2nc3ncccn3n2)cc1,3.021%
CCC(CC)CN1CCC(n2cc(C3CCCC3)nn2)CC1,-27.03%
Cc1cc(CN2C[C@H]3CCC[C@@]3(COCc3csc(C)n3)C2)no1,-42.66%
O=C(O)COc1ccccc1CN1CCCC1c1ccncn1 (centres unmarked),-8.163%
Cn1nnc2c1C(COCc1ccccn1)CN(C(=O)c1cccs1)C2 (centres unmarked),-14.42%
Cc1noc(C)c1CN1CCn2c(CN3CCN(C)CC3)cnc2C1,-32.97%
CCOc1ncccc1CNc1nnc(C)c(C)c1C#N,-0.6382%

Once more, the final 4:

- O=C(O)COc1ccccc1CN1CCCC1c1ccncn1 (centres unmarked) | -8.163%
- Cn1nnc2c1C(COCc1ccccn1)CN(C(=O)c1cccs1)C2 (centres unmarked) | -14.42%
- Cc1noc(C)c1CN1CCn2c(CN3CCN(C)CC3)cnc2C1 | -32.97%
- CCOc1ncccc1CNc1nnc(C)c(C)c1C#N | -0.6382%